Laboratory results: PubChem BioAssay AID652259 (Drosophila RNAi Screening Center, 2013)
The screen tested about 22,000 reagents; this is an unselected part of those that have a named target and a result. Of all reagents, 233 (1.1%) are marked active. 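Light values are raw, unnormalised plate reads; the ratio scores behind the reporter calls were not deposited.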 The record does not give: the amount of reagent, the time to read-out, the dose of the treatment.

- Screen: 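Identify new Wingless signalling regulators in fly cells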 (primary screen)
- System: Drosophila clone 8 imaginal disc epithelial cells
- Reagent: long dsRNA against Drosophila genes
- Conditions: pathway stimulated by co-transfected Wingless expression plasmid
- Read-out: 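Firefly luciferase from a tcf-site Wingless reporter, measured alongside co-transfected Renilla luciferase that tracks transfection; pathway stimulated by a Wingless plasmid; the firefly-to-Renilla ratio is not deposited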
- Scale: firefly reporter light: higher = more Wg reporter light, before normalisation; Renilla control light: higher = more transfected or surviving cells
- Hit rule: 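a knock-down is a candidate when at least two out of four statistical tests show it departing from its plate mean; one test alone signals a weak candidate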
- Meaning of the calls: active = candidate regulator (raises or lowers reporter); inactive = not a candidate

gene | DRSC id | firefly reporter light, replicate 1 | firefly reporter light, replicate 2 | Renilla control light, replicate 1 | Renilla control light, replicate 2 | Outcome
CG12992 (GeneID 32733) | DRSC19512 | 19963 | – | 8192 | – | inactive
CG13461 (GeneID 39635) | DRSC10008 | 4203 | – | 2004 | – | inactive
EndoGI (GeneID 34953) | DRSC01964 | 2435 | 3259 | 1018 | 1916 | inactive
Glt (GeneID 34193) | DRSC03333 | 6443 | – | 1696 | – | inactive
fng (GeneID 40314) | DRSC11455 | 3208 | – | 1669 | – | inactive
fng (GeneID 40314) | DRSC11887 | 2432 | – | 1404 | – | inactive
fng (GeneID 40314) | DRSC21935 | 4.49e5 | 4.10e5 | 1.81e5 | 1.84e5 | inactive
CG1304 (GeneID 33074) | DRSC20494 | 22044 | – | 10448 | – | inactive
CG31933 (GeneID 326176) | DRSC00457 | 3286 | 11216 | 1175 | 3528 | inactive
bi (GeneID 31379) | DRSC18742 | 27417 | – | 10704 | – | inactive
CG11162 (GeneID 32325) | DRSC19391 | 29350 | – | 16368 | – | inactive
CG11162 (GeneID 32325) | DRSC22538 | 3.64e5 | 3.57e5 | 1.61e5 | 1.43e5 | inactive
myo (GeneID 43811) | DRSC17174 | 2459 | 6225 | 983 | 2513 | inactive
CR15280 (GeneID 3885605) | DRSC01953 | 2552 | 5192 | 1296 | 2312 | inactive
CG11999 (GeneID 40637) | DRSC12185 | 14736 | – | 4291 | – | inactive
Smyd4-1 (GeneID 35985) | DRSC06785 | 8475 | – | 2845 | – | inactive
Acyp2 (GeneID 41910) | DRSC15336 | 17308 | – | 3578 | – | inactive
Ir10a (GeneID 32067) | DRSC18891 | 2903 | – | 1123 | – | inactive
Ir10a (GeneID 32067) | DRSC19478 | 14759 | – | 7696 | – | inactive
Ir10a (GeneID 32067) | DRSC19479 | 18477 | – | 8274 | – | inactive
Ttc19 (GeneID 35172) | DRSC02474 | 1877 | 4624 | 547 | 2001 | inactive
CG10597 (GeneID 32714) | DRSC19357 | 24496 | – | 7782 | – | inactive
CG32241 (GeneID 317934) | DRSC08100 | 4237 | – | 1569 | – | inactive
CG32241 (GeneID 317934) | DRSC21518 | 7.67e5 | 8.98e5 | 2.34e5 | 2.03e5 | inactive
Dsk (GeneID 45845) | DRSC12347 | 9370 | – | 3401 | – | inactive
CASK (GeneID 42567) | DRSC14588 | 37478 | – | 6641 | – | inactive
CASK (GeneID 42567) | DRSC16597 | 34589 | – | 4965 | – | inactive
CASK (GeneID 42567) | DRSC16598 | 30701 | – | 6049 | – | inactive
CASK (GeneID 42567) | DRSC21917 | 3.99e5 | 4.31e5 | 2.01e5 | 1.86e5 | inactive
ClpP (GeneID 34402) | DRSC02806 | 7761 | – | 2843 | – | inactive
CG7139 (GeneID 40448) | DRSC11611 | 7261 | – | 2854 | – | inactive
Vm26Ab (GeneID 33827) | DRSC03473 | 4102 | 10579 | 1907 | 4497 | inactive
CG15097 (GeneID 37172) | DRSC06526 | 17920 | – | 5924 | – | inactive
GstE9 (GeneID 246581) | DRSC06679 | 7819 | – | 2055 | – | inactive
Fbp2 (GeneID 34259) | DRSC03327 | 6612 | – | 2672 | – | inactive
CG11257 (GeneID 37227) | DRSC06068 | 4809 | – | 1885 | – | inactive
hyx (GeneID 41086) | DRSC14462 | 6041 | – | 1793 | – | inactive
CG1575 (GeneID 31731) | DRSC18069 | 1594 | 6344 | 778 | 1083 | inactive
Ugt49C1 (GeneID 37421) | DRSC04252 | 2341 | 5184 | 589 | 2297 | inactive
Trp1 (GeneID 34333) | DRSC03465 | 5093 | 7053 | 976 | 3188 | inactive
CG3739 (GeneID 42320) | DRSC15510 | 8560 | – | 1709 | – | inactive
Mtp (GeneID 35362) | DRSC03216 | 8643 | – | 2919 | – | inactive
dgt3 (GeneID 37377) | DRSC04349 | 7141 | – | 1659 | – | inactive
CG33773 (GeneID 3772436) | DRSC14032 | 4996 | – | 2368 | – | inactive
CG14397 (GeneID 8674022) | DRSC02381 | 3265 | 9045 | 784 | 2660 | inactive
CG5790 (GeneID 35095) | DRSC02896 | 12073 | – | 3942 | – | inactive
pck (GeneID 31101) | DRSC18565 | 2436 | 9522 | 998 | 2267 | inactive
Ubr3 (GeneID 31713) | DRSC17987 | 2300 | 7507 | 1029 | 2820 | inactive
Ubr3 (GeneID 31713) | DRSC17997 | 16467 | – | 7083 | – | inactive
Cyp18a1 (GeneID 32858) | DRSC20235 | 12805 | – | 11307 | – | inactive
Lrt (GeneID 37342) | DRSC06045 | 5943 | – | 2987 | – | inactive
eIF3h (GeneID 45682) | DRSC01995 | 17804 | – | 3976 | – | inactive
CG31760 (GeneID 34642) | DRSC02590 | 1542 | 5771 | 612 | 1717 | inactive
Gpxl (GeneID 37194) | DRSC06538 | 7581 | – | 2401 | – | inactive
CG32148 (GeneID 251924) | DRSC09338 | 3376 | – | 1558 | – | inactive
Or49a (GeneID 36350) | DRSC07493 | 6615 | – | 2390 | – | inactive
Jon74E (GeneID 39959) | DRSC10617 | 5552 | – | 2768 | – | inactive
CG9813 (GeneID 41644) | DRSC16569 | 7554 | – | 3430 | – | inactive
CG11269 (GeneID 37527) | DRSC04094 | 2005 | 5744 | 705 | 2432 | inactive
CG34334 (GeneID 5740122) | DRSC20643 | 17930 | – | 8710 | – | inactive
Semp1 (GeneID 34914) | DRSC01874 | 3703 | 7482 | 1243 | 3408 | inactive
smp-30 (GeneID 41786) | DRSC17059 | 13360 | – | 2539 | – | inactive
CG34107 (GeneID 4379852) | DRSC14554 | 20041 | – | 5485 | – | inactive
TwdlX (GeneID 318094) | DRSC19151 | 4576 | – | 1702 | – | inactive
VAChT (GeneID 42795) | DRSC13311 | 4156 | – | 1792 | – | inactive
VAChT (GeneID 42795) | DRSC16608 | 1532 | 5168 | 778 | 904 | inactive
eg (GeneID 40428) | DRSC11885 | 12343 | – | 3969 | – | inactive
Pgant5 (GeneID 326151) | DRSC03149 | 8352 | – | 2976 | – | inactive
Moca-cyp (GeneID 43374) | DRSC15364 | 4918 | 8845 | 2169 | 1293 | inactive
AP-2sigma (GeneID 42525) | DRSC15957 | 38292 | – | 6880 | – | inactive
jim (GeneID 43924) | DRSC11889 | 8749 | – | 2864 | – | inactive
Gr9a (GeneID 318158) | DRSC22506 | 8.78e5 | 8.93e5 | 3.27e5 | 1.75e5 | inactive
Lcp65Ag3 (GeneID 59159) | DRSC10345 | 1430 | 10599 | 1277 | 4555 | inactive
ppk18 (GeneID 34295) | DRSC02216 | 2105 | 6562 | 899 | 3364 | inactive
ppk18 (GeneID 34295) | DRSC02217 | 2108 | 7171 | 771 | 3312 | inactive
Fer3HCH (GeneID 32260) | DRSC19892 | 22148 | – | 12469 | – | inactive
Ras85D (GeneID 41140) | DRSC16814 | 18737 | – | 3187 | – | inactive
CG9166 (GeneID 38161) | DRSC07842 | 4219 | – | 1980 | – | inactive
CG7246 (GeneID 31833) | DRSC18422 | 3376 | – | 1426 | – | inactive
Rala (GeneID 31332) | DRSC18703 | 14739 | – | 10086 | – | inactive
CG32845 (GeneID 318243) | DRSC07867 | 3488 | – | 1360 | – | inactive
dnd (GeneID 42580) | DRSC16064 | 35382 | – | 6930 | – | inactive
sturkopf (GeneID 38150) | DRSC08637 | 11515 | – | 3328 | – | inactive
Btnd (GeneID 31552) | DRSC18316 | 15747 | – | 7434 | – | inactive
CG11275 (GeneID 37534) | DRSC04095 | 3509 | 9712 | 711 | 3746 | inactive
Sf3b6 (GeneID 38720) | DRSC09972 | 1862 | 12668 | 861 | 3046 | inactive
lost (GeneID 40559) | DRSC12002 | 2653 | – | 1104 | – | inactive
lost (GeneID 40559) | DRSC12234 | 10560 | – | 4444 | – | inactive
lost (GeneID 40559) | DRSC21987 | 7.07e5 | 6.24e5 | 2.58e5 | 2.43e5 | inactive
CG9822 (GeneID 37440) | DRSC04568 | 2784 | 8258 | 1160 | 2599 | inactive
CG9921 (GeneID 32599) | DRSC20220 | 4149 | – | 1362 | – | inactive
epsilonTry (GeneID 49080) | DRSC07611 | 5018 | – | 2699 | – | inactive
I-2 (GeneID 39156) | DRSC11194 | 9783 | – | 2660 | – | inactive

14 of these entries, set out differently.
gene	DRSC id	firefly reporter light, replicate 1	firefly reporter light, replicate 2	Renilla control light, replicate 1	Renilla control light, replicate 2	Outcome
CG31760 (GeneID 34642)	DRSC02590	1542	5771	612	1717	inactive
Gpxl (GeneID 37194)	DRSC06538	7581		2401		inactive
CG32148 (GeneID 251924)	DRSC09338	3376		1558		inactive
Or49a (GeneID 36350)	DRSC07493	6615		2390		inactive
Jon74E (GeneID 39959)	DRSC10617	5552		2768		inactive
CG9813 (GeneID 41644)	DRSC16569	7554		3430		inactive
CG11269 (GeneID 37527)	DRSC04094	2005	5744	705	2432	inactive
CG34334 (GeneID 5740122)	DRSC20643	17930		8710		inactive
Semp1 (GeneID 34914)	DRSC01874	3703	7482	1243	3408	inactive
smp-30 (GeneID 41786)	DRSC17059	13360		2539		inactive
CG34107 (GeneID 4379852)	DRSC14554	20041		5485		inactive
TwdlX (GeneID 318094)	DRSC19151	4576		1702		inactive
VAChT (GeneID 42795)	DRSC13311	4156		1792		inactive
VAChT (GeneID 42795)	DRSC16608	1532	5168	778	904	inactive
